SMILES strings stand for the structures. Where a name gives a salt, the structure may show the parent alone. Whole data set: some 1,000 compounds, median “cFRET/donor change relative to DMSO, normalised to beta-lapachone positive control (supercomplex I-IV assembly)” near 0.18, cut for the lowest 2% near -1. The list shows a part of the results.

The assay deals with C2C12 (NDUFB8-AcGFP / COX8A-DsRed-Monomer FRET reporter). Put plainly: cFRET/donor change relative to DMSO, normalised to beta-lapachone positive control (supercomplex I-IV assembly) (fraction of beta-lapachone effect); higher = more respiratory supercomplex assembly. As to conditions: 40 µM; 24 h. As to the method:
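Cells were treated with 40 uM compound for 24 h and imaged on an IN Cell Analyzer 6000. Corrected FRET was divided by donor signal (cFRET/donor) and measured in two replicate experiments. The score is (mean cFRET/donor of compound - mean DMSO) / (mean beta-lapachone 40 uM - mean DMSO). Compounds flagged for prominent cell death, abnormal morphology or decreased cell number were excluded.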
For `CN1CCC[C@@H]1CCO[C@](C)(c1ccccc1)c1ccc(Cl)cc1` [Clemastine fumarate], the cFRET/donor change worked out at 0.421.
The figure for `CC[N+](CC)(CC)CCOc1cccc(OCC[N+](CC)(CC)CC)c1OCC[N+](CC)(CC)CC` [Gallamine triethiodide] is 0.564; for `CCOC(=O)[N-]c1c[n+](N2CCOCC2)no1` [Molsidomine] it is 0.0144; for `O=C(O)CCCCC1CCSS1` (racemic) [(±)-alpha-Lipoic Acid] it is 0.0292.
The figure for `CC(C)(C)NCC(O)c1cc(O)cc(O)c1` (stereo unspecified) [Terbutaline hemisulfate] is 0.442.
The figure for `C=C(c1ccc(C(=O)O)cc1)c1cc2c(cc1C)C(C)(C)CCC2(C)C` [Bexarotene] is 0.499.
With `CCCc1nn(C)c2c(=O)[nH]c(-c3cc(S(=O)(=O)N4CCN(C)CC4)ccc3OCC)nc12` [Sildenafil citrate salt], the cFRET/donor change was found to be 0.123.
The figure for `COc1cc(CNC(=O)CCCCCCC(C)C)ccc1O` [Dihydrocapsaicin] is 0.743.
The result for `CCCCS(=N)(=O)CCC(N)C(=O)O` [L-Buthionine-sulfoximine] reads -0.0531; that for `COc1cccc(OC)c1OCCNCC1CSc2ccccc2O1` (stereo unspecified) [Benoxathian hydrochloride], 0.382; that for `COc1cc2nc(N3CCCN(C)CC3)nc(NC3CCN(Cc4ccccc4)CC3)c2cc1OC`, 0.186.
The result for `NC1CONC1=O` (racemic) [DL-Cycloserine] reads 0.397; that for `CN(C)CCCc1cc(C(=O)Nc2ccc(-c3ccncc3)cc2)ccc1O`, 0.377.
As for `CCC1(C)CC(=O)NC1=O` (stereo unspecified) [Ethosuximide], the cFRET/donor change was 0.147.
The result for `Cc1nc2c([nH]1)c(=O)n(C)c(=O)n2Cc1ccco1` [Furafylline] reads 0.0581.
`CC(NCCc1ccc(O)cc1)C(O)c1ccc(O)cc1` (stereo unspecified) [Ritodrine hydrochloride] returned a cFRET/donor change of -0.0849.
Take `OC[C@H]1NC[C@@H](O)[C@@H]1O` [1,4-Dideoxy-1,4-imino-D-arabinitol]: the cFRET/donor change is 0.377.
The figure for `NS(=O)(=O)c1nn2cc(-c3ccccc3)nc2s1` is -0.298.
The result for `NCCCS(=O)(=O)O` [3-Amino-1-propanesulfonic acid sodium] reads -2.05.
The figure for `Clc1ccc(C(c2ccccc2Cl)C(Cl)Cl)cc1` (stereo unspecified) [1-(2-Chlorophenyl)-1-(4-chlorophenyl)-2,2-dichloroethane] is 0.237; for `CC(C)NNC(=O)c1ccncc1` [Iproniazid phosphate] it is -0.254.
In turn, `O=C(O)c1cc(=O)c2ccccc2[nH]1` [Kynurenic acid] showed a cFRET/donor change of -0.161.
The result for `O=c1cc(N2CCOCC2)oc2c(-c3ccccc3)cccc12` [LY-294,002 hydrochloride] reads 0.281; that for `CCc1ccc(/C=C2/SC(=S)NC2=O)cc1`, -1.41; that for `C=CCNc1ncnc2ccc(Br)cc12`, 0.501.
Take `C[N+](C)(C)CCOC(N)=O` [Carbachol]: the cFRET/donor change was -0.216.
`CCN1C(=O)C=CC1=O` [N-Ethylmaleimide]: the cFRET/donor change was found to be 0.275.
The result for `O=C1c2c(O)ccc(O)c2C(=O)c2c(NCCNCCO)ccc(NCCNCCO)c21` [Mitoxantrone] reads 0.111.
`N[C@@H](Cc1ccc(O)c(O)c1)C(=O)O` [L-3,4-Dihydroxyphenylalanine] returned a cFRET/donor change of -0.183.
On to `CCCCc1ncc(/C=C(\Cc2cccs2)C(=O)O)n1Cc1ccc(C(=O)O)cc1` [Eprosartan mesylate], for which the cFRET/donor change was -0.151.
The result for `CN1CCN2c3ccccc3Cc3ccccc3C2C1` (stereo unspecified) [Mianserin hydrochloride] reads 0.3; that for `CCN1CCCC1CNC(=O)c1cc(S(N)(=O)=O)ccc1OC` (single isomer, unassigned; (-)) [(-)-Sulpiride], 0.312; that for `N[C@@H](COP(=O)(O)O)C(=O)O` [O-Phospho-L-serine], 0.129.
The figure for `CCCCc1oc2ccccc2c1C(=O)c1cc(I)c(OCCN(CC)CC)c(I)c1` [Amiodarone hydrochloride] is 0.137; for `COc1ccc(Br)cc1S(=O)(=O)NC(=O)/C=C/c1ccccc1Cc1ccc2ccccc2c1` it is 0.583; for `CO[C@H]1C[C@@H]2CC[C@@H](C)[C@@](O)(O2)C(=O)C(=O)N2CCCC[C@H]2C(=O)O[C@H]([C@H](C)C[C@@H]2CC[C@@H](OC(=O)C(C)(CO)CO)[C@H](OC)C2)CC(=O)[C@H](C)/C=C(\C)[C@@H](O)[C@@H](OC)C(=O)[C@H](C)C[C@H](C)/C=C/C=C/C=C/1C` [Temsirolimus] it is -0.55.
The figure for `CC12CC3CC(C)(C1)CC(N)(C3)C2` [Memantine hydrochloride] is 0.503; for `O=C(Nc1ccc([N+](=O)[O-])cc1Cl)c1cc(Cl)ccc1O` [Niclosamide] it is -0.363; for `O=C(Nc1cccnc1)N1CCC(Cc2cccc(Oc3ccc(C(F)(F)F)cn3)c2)CC1` [PF 3845 hydrate] it is 0.494.
Molecule `C#C[C@]1(O)CC[C@H]2[C@@H]3CCC4=Cc5oncc5C[C@]4(C)[C@H]3CC[C@@]21C` [Danazol] showed a cFRET/donor change of 0.509.
The figure for `COC(=O)[C@H]1[C@H]2C[C@H]3c4[nH]c5ccccc5c4CCN3C[C@H]2CC[C@@H]1O` [Rauwolscine hydrochloride] is 0.00542; for `COC(=O)C(C)(N)Cc1ccc(O)cc1` (racemic) [alpha-Methyl-DL-tyrosine methyl ester hydrochloride] it is 0.302; for `CC(C)NCC(O)COc1cccc2[nH]ccc12` (stereo unspecified) [Pindolol] it is 0.485.
The result for `CC(C)C(=O)c1c(C(C)C)nn2ccccc12` [Ibudilast] reads 0.498; that for `Nc1ncnc2c1ncn2[C@@H]1O[C@@H]2COP(=O)(O)O[C@H]2[C@H]1O` [Adenosine 3',5'-cyclic monophosphate], -0.0353; that for `Nc1nc(N)c2nc(-c3ccccc3)c(N)nc2n1` [Triamterene], 0.563.
The figure for `CN1[C@@H]2CC[C@H]1C[C@@H](OC(=O)C(O)c1ccccc1)C2` (mixture of isomers) [DL-Homatropine hydrobromide] is 0.0655; for `COc1ccc(CCn2nnnc2C2(c3ccc(C)cc3)CC2)cc1` [Mephetyl tetrazole] it is 0.388.
As to `C=C1C(=O)O[C@H]2[C@H]1CC/C(C)=C/CC[C@@]1(C)O[C@@H]21` [Parthenolide], the cFRET/donor change was found to be 0.366.
As to `O=C1NC(c2cccc([N+](=O)[O-])c2)=CCN1c1ccccc1O` [Icilin], the cFRET/donor change amounted to 0.561.
The figure for `Nc1ncnc2c1ncn2C1CCCC1` [9-cyclopentyladenine] is 0.267; for `CCCN(CC1CC1)c1nc(C)nc(Nc2c(Cl)cc(Cl)cc2Cl)c1Cl` it is 0.169; for `CCCCCC(O)CCCC(=O)O` (stereo unspecified) [5-hydroxydecanoic acid sodium] it is 0.0238.
The result for `COc1cc(N)c(Cl)cc1C(=O)OCCN1CCCCC1` reads 0.0941; that for `NC(N)=NC(N)=Nc1ccccc1` [1-Phenylbiguanide], 0.314; that for `NCCc1ccc(O)c(O)c1` [Dopamine hydrochloride], 0.145.
For `C[C@H](CS)C(=O)N1CCC[C@H]1C(=O)O` [Captopril], the cFRET/donor change was -0.0367.
The figure for `NC(=O)c1ccccc1` [Benzamide] is 0.0222.
The result for `Cc1c(-c2ccc(-c3ccccc3F)cc2)nc2ccc(F)cc2c1C(=O)O` [Brequinar sodium salt hydrate] reads 0.431; that for `O=c1ccn([C@@H]2O[C@H](COP(=O)(O)OP(=O)(O)O)[C@@H](O)[C@H]2O)c(=O)[nH]1` [Uridine 5'-diphosphate sodium], 0.202.
The figure for `CC(C(O)c1ccc(O)cc1)N1CCC(Cc2ccccc2)CC1` (stereo unspecified) [Ifenprodil tartrate] is 0.529.
`O=C(O)C1=CC(=C(c2ccc(O)c(C(=O)O)c2)c2ccc(O)c(C(=O)O)c2)C=CC1=O` [Aurintricarboxylic acid] yielded a cFRET/donor change of -0.223.
As to `NC(C(=O)O)C(O)C(=O)O` (racemic) [DL-threo-beta-hydroxyaspartic acid], the cFRET/donor change was -0.112.
Regarding `Cn1cc(C(F)(F)F)nc1-c1ccc(OCC(O)CNCCOc2ccc(O)c(C(N)=O)c2)cc1` (stereo unspecified), the cFRET/donor change was found to be 1.13.
The figure for `CCCCCCNC(=O)n1cc(F)c(=O)[nH]c1=O` [Carmofur] is 0.568; for `CCCOc1ccccc1-c1nc2[nH]nnc2c(=O)[nH]1` [Zaprinast] it is 0.225; for `CC#C[C@]1(O)CC[C@H]2[C@@H]3CCC4=CC(=O)CCC4=C3[C@@H](c3ccc(N(C)C)cc3)C[C@@]21C` [Mifepristone] it is -0.653.
`COc1ccc(Cl)cc1C(=O)NCCc1ccc(S(=O)(=O)NC(=O)NC2CCCCC2)cc1` [Glybenclamide] displayed a cFRET/donor change of 0.534.
The figure for `CCN(CC)CCOCCOC(=O)C1(c2ccccc2)CCCC1` [Carbetapentane citrate] is 0.0628.
The result for `O=P(O)(O)C(O)(Cn1ccnc1)P(=O)(O)O` [Zoledronic acid monohydrate] reads 0.239.
The figure for `O=C(c1cc(O)c(O)c([N+](=O)[O-])c1)c1ccccc1F` is -0.361.
Molecule `Cc1cc(C(C)(C)C)cc(C)c1CC1=NCCN1` [Xylometazoline hydrochloride] registered a cFRET/donor change of 0.077.
The result for `O=c1[nH]ccc2c(O)cccc12` [1,5-Isoquinolinediol] reads 0.009; that for `COc1cc2nc(N3CCN(C(=O)C4COc5ccccc5O4)CC3)nc(N)c2cc1OC` (stereo unspecified) [Doxazosin mesylate], 0.33; that for `N[C@H]1CONC1=O` [L-Cycloserine], 0.403.
The result for `O=C(CCc1ccncc1)NNC(=O)N1Cc2ccccc2Oc2ccc(Cl)cc21` reads 0.597; that for `Nc1nc2c(cnn2CCc2ccccc2)c2nc(-c3ccco3)nn12`, -0.406; that for `Nc1cc2c(ncn2CCOCP(=O)(O)O)c(=O)[nH]1` [PMEG hydrate], 0.0365.
`COCCNC(=O)COc1ccc(OCCNC[C@H](O)COc2ccccc2)cc1` [ZD 7114 hydrochloride] yielded a cFRET/donor change of 0.352.
The result for `CN[C@H]1CC[C@@H](c2ccc(Cl)c(Cl)c2)c2ccccc21` [Sertraline hydrochloride] reads 0.829; that for `CC[C@H]1OC(=O)[C@H](C)[C@@H](O[C@H]2C[C@@](C)(OC)[C@@H](O)[C@H](C)O2)[C@H](C)[C@@H](O[C@@H]2O[C@H](C)C[C@H](N(C)C)[C@H]2O)[C@](C)(O)C[C@@H](C)CN(C)[C@H](C)[C@@H](O)[C@]1(C)O` [Azithromycin dihydrate], 0.0562.

These data come from the supplement of paper PMC9877034.
